These are yes or no findings as the source states them, for the method shown. Some entries that bind do so weakly or less than the wild type. Sequences can lack the tags named with a protein.
Molecular target: T1, PkaI_(257-380) interaction domain fused to the Cya-T18 domain (Streptomyces coelicolor A3(2)) (UniProt Q9L0H9)
T1 sequence: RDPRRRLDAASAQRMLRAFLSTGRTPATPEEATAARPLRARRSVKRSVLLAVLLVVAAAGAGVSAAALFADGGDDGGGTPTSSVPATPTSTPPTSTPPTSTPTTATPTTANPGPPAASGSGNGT
Experiment: two-hybrid; bacterial two-hybrid (T18/T25 domains of B. pertussis adenylate cyclase) in E. coli cya mutant BTH101; PkaI_(257-380) on T18 (pUT18c) as bait, M145 genomic libraries in pKT25 as prey; growth on M63 minimal agar with lactose; confirmed by retransformation and sequencing

B1: SCO2097_(21-120) fragment of SCO2097 (domain or fragment, UniProt Q9S2V9 21-120)
chain: EDPKFATALEGSGLRTYTRRRVYQAVAGFLVGIALLMAGMVAQQVWLSVVGFLVMLGCAVLAVTGWRKAPKPGEQQQAAGAGPQAARRQGRQKRSMMDRI
**Q.** For B1, which binding is on record?
**A.** binds
